This is an account of results in patent publication US11130724B2, “Compound, resin, composition, resist pattern formation method, and circuit pattern formation method” (Mitsubishi Gas Chemical Company, Inc., priority 2015, dated 2021).

The nature of this data set: Etching test / evaluation of etching resistance of underlayer film versus underlayer film of novolac. To be noted: underlayer film 200 nm (10 parts material, PGMEA 90, DTDPI 0.5, Nikalac 0.5), baked 240° C. 60 s and 400° C. 120 s; Ar:CF4:O2 = 50:5:5 sccm, 50 W, 20 Pa, 2 min; etching rate relative to novolac PSM4357 film.

With `CC(c1ccc(-c2ccccc2)cc1)(c1c(O)ccc2ccccc12)c1c(O)ccc2ccccc12` [BiN-1], the Etching resistance evaluation result was “A (The etching rate was less than −15% to −10% as compared with the underlayer film of novolac.)”.
`CC(c1ccc(-c2ccccc2)cc1)(c1c(O)ccc2cc(O)ccc12)c1c(O)ccc2cc(O)ccc12` [BiN-2]: the Etching resistance evaluation entry was “A (The etching rate was less than −15% to −10% as compared with the underlayer film of novolac.)”.
To `CC(c1ccc(-c2ccccc2)cc1)(c1c(O)ccc2ccc(O)cc12)c1c(O)ccc2ccc(O)cc12` [BiN-3] belongs “A (The etching rate was less than −15% to −10% as compared with the underlayer film of novolac.)”; to `CC(c1ccc(C2CCCCC2)cc1)(c1c(O)ccc2cc(O)ccc12)c1c(O)ccc2cc(O)ccc12` [BiN-4], “A (The etching rate was less than −15% to −10% as compared with the underlayer film of novolac.)”; to `CC(c1ccc(-c2ccccc2)cc1)(c1ccc(O)c(-c2ccccc2)c1)c1ccc(O)c(-c2ccccc2)c1` [BiP-1], “A (The etching rate was less than −15% to −10% as compared with the underlayer film of novolac.)”.
To `CC(c1ccc(-c2ccccc2)cc1)(c1cc(-c2ccc(O)cc2)ccc1O)c1cc(-c2ccc(O)cc2)ccc1O` [BiP-2] belongs “A (The etching rate was less than −15% to −10% as compared with the underlayer film of novolac.)”; to `CC(c1ccc(-c2ccccc2)cc1)(c1ccc(O)c(-c2ccccc2O)c1)c1ccc(O)c(-c2ccccc2O)c1` [BiP-3], “S (The etching rate was less than −15% as compared with the underlayer film of novolac.)”; to `CC(c1ccc(C2CCCCC2)cc1)(c1ccc(O)c(-c2ccccc2O)c1)c1ccc(O)c(-c2ccccc2O)c1` [BiP-4], “S (The etching rate was less than −15% as compared with the underlayer film of novolac.)”.
In the case of `CC(c1ccc(O)cc1)(c1ccc(O)cc1)c1ccc(-c2ccccc2)cc1` [P-1], the Etching resistance evaluation result is “A (The etching rate was less than −15% to −10% as compared with the underlayer film of novolac.)”.
To `CC(c1ccc(O)cc1)(c1ccc(O)cc1)c1ccc(C2CCCCC2)cc1` [P-2] belongs “A (The etching rate was less than −15% to −10% as compared with the underlayer film of novolac.)”; to `CC1(c2ccc(-c3ccccc3)cc2)c2ccc(O)cc2Oc2cc(O)ccc21` [P-3], “B (The etching rate was −10% to +5% as compared with the underlayer film of novolac.)”; to `CC1(c2ccc(C3CCCCC3)cc2)c2ccc(O)cc2Oc2cc(O)ccc21` [P-4], “B (The etching rate was −10% to +5% as compared with the underlayer film of novolac.)”.
In the case of `CC1(c2ccc(-c3ccccc3)cc2)c2c(ccc3cc(O)ccc23)Oc2ccc3cc(O)ccc3c21` [XBiN-1], the Etching resistance evaluation result is recorded as “S (The etching rate was less than −15% as compared with the underlayer film of novolac.)”.
As to `CC1(c2ccc(-c3ccccc3)cc2)c2c(ccc3ccc(O)cc23)Oc2ccc3ccc(O)cc3c21` [XBiN-2], the Etching resistance evaluation result is on record as “S (The etching rate was less than −15% as compared with the underlayer film of novolac.)”.
On to `CC1(c2ccc(C3CCCCC3)cc2)c2c(ccc3cc(O)ccc23)Oc2ccc3cc(O)ccc3c21` [XBiN-3], for which the Etching resistance evaluation result is “S (The etching rate was less than −15% as compared with the underlayer film of novolac.)”.
